Assay: Odor evaluation by professional perfumer
Conditions: control = base formula with no alkalizer

Ammonium hydroxide [reference compound]
order from no malodor to strongest malodor (primary alkanolamine compositions): Control>AMPD=Serinol>Tris>MEA=AMP>AEPD>NH3 | order from no malodor to strongest malodor (tertiary alkanolamine compositions): Control>DMAMP>DMAPD>NH3
